{"source": "paper doi:10.1101/800557", "molecular_target": "Tspan15 (human (endogenous in HEK-293T)), O95858", "experiment": "affinity purification with mass spectrometry", "conditions": "remark: other sources report otherwise", "note": "Results are given in words; binding and its absence hold for the method and conditions named. In cells and extracts the contact can be indirect. Here binding means that the protein was enriched with, or labelled near, the bait; the list need not be complete. A no says only that the protein was not detected with the bait.", "data": [{"binder": "beta-transducin repeat containing E3 ubiquitin protein ligase (BTRC), Q9Y297 1-605 (protein) MDPAEAVLQEKALKFMCSMPRSLWLGCSSLADSMPSLRCLYNPGTGALTAFQNSSEREDCNNGEPPRKIIPEKNSLRQTYNSCARLCLNQETVCLASTAMKTENCVAKTKLANGTSSMIVPKQRKLSASYEKEKELCVKYFEQWSESDQVEFVEHLISQMCHYQHGHINSYLKPMLQRDFITALPARGLDHIAENILSYLDAKSLCAAELVCKEWYRVTSDGMLWKKLIERMVRTDSLWRGLAERRGWGQYLFKNKPPDGNAPPNSFYRALYPKIIQDIETIESNWRCGRHSLQRIHCRSETSKGVYCLQYDDQKIVSGLRDNTIKIWDKNTLECKRILTGHTGSVLCLQYDERVIITGSSDSTVRVWDVNTGEMLNTLIHHCEAVLHLRFNNGMMVTCSKDRSIAVWDMASPTDITLRRVLVGHRAAVNVVDFDDKYIVSASGDRTIKVWNTSTCEFVRTLNGHKRGIACLQYRDRLVVSGSSDNTIRLWDIECGACLRVLEGHEELVRCIRFDNKRIVSGAYDGKIKVWDLVAALDPRAPAGTLCLRTLVEHSGRVFRLQFDEFQIVSSSHDDTILIWDFLNDPAAQAEPPRSPSRTYTYISR", "values": [{"measurement": "binding", "value": "no binding"}]}]}
